Hit rate of the full screen: of about 300,000 compounds, about 3,700 (1.2%) were called active. Inconclusive results, whose numbers are uncertain, are shown with a selection of clear calls. Calls come from the whole dose curve; tested in HEK293 cells. Potencies beside an inconclusive call are fits to weak or partial responses and may not hold up.
Test: qHTS for Inhibitors of binding or entry into cells for Lassa Virus; note: nearly all actives have a fitted effect of over 50% in size
Details: Lassa virus pseudotype entry inhibition, cell reporter; activity change, negative = inhibition: at 37.9 µM (top of the series) unless noted
In the case of `COc1ccccc1N(CC(=O)N1CCCCCC1)S(C)(=O)=O`, the “activity change, negative = inhibition” value is reported as inactive: 14.6%. In the case of `COc1ccccc1C1CCN(C(=O)c2ccc(C(C)(C)C)cc2)CC1`, the Potency is reported as inconclusive: 14.1 µM [inhibitor, single point]. For `O=[N+]([O-])c1cc(F)c(N2CCCC2)cc1Br`, the Potency was inconclusive: 2.51 µM [inhibitor, partial curve, poor fit]. In the case of `O=C1[C@H]2[C@@H](C(=O)N1c1cccc3ccccc13)C1(C(=O)c3ccccc3C1=O)N1CCC[C@@H]21`, the Potency is reported as inconclusive: 29.1 µM [activator, single point]. In the case of `S=C(NCc1ccco1)Nc1ccc(Br)cc1Cl`, the “activity change, negative = inhibition” value is reported as inactive: 8.14%. For `c1ccc(Oc2cc(-n3cncn3)ncn2)cc1`, the “activity change, negative = inhibition” value was inactive: -1.89%. In the case of `Cc1ccccc1CNC(=O)CCSCc1cnn(-c2ccccc2)c1-n1cccc1`, the “activity change, negative = inhibition” value is reported as inactive: -11.8% [at 46.1 µM]. In the case of `COc1ccc(OC)c(S(=O)(=O)N/N=C\c2c[nH]c3ccccc23)c1`, the Potency is reported as inconclusive: 35.5 µM [inhibitor, single point]. In the case of `CC(C)Cc1nnc(NC(=O)CSc2nc(-c3ccccc3)cc(=O)[nH]2)s1`, the Potency is reported as inconclusive: 11.2 µM [inhibitor, partial curve, poor fit]. With `COc1ccc(C2c3c(-c4ccc(F)cc4)n[nH]c3C(=O)N2c2ccccc2)cc1OC` (stereo not given) the Potency was inconclusive: 17.8 µM [inhibitor, single point]. For `CCOc1ccc(CCNC(=O)c2cc3c(-c4ccccc4F)nn(C)c3s2)cc1OCC`, the Potency was inconclusive: 35.5 µM [inhibitor, single point]. For `N#Cc1cc2c(nc1SCC(=O)N1CCCCC1)CCCCC2`, the “activity change, negative = inhibition” value was inactive: 10.2%. With `O=C(N/N=C/CCc1ccccc1)c1ccccc1` the Potency was inconclusive: 6.31 µM [activator, single point]. For `Cc1c(C(=O)OCC(=O)Nc2ccc(S(N)(=O)=O)cc2)oc2c1ccc1ccccc12`, the Potency was inconclusive: 1.26 µM [inhibitor, single point]. With `O=C(CSc1nnnn1-c1ccc2c(c1)CCC2)NCc1cccs1` the Potency was inconclusive: 6.51 µM [inhibitor, partial curve, poor fit]. With `CN(CC(=O)NCc1ccncc1)S(=O)(=O)c1ccc2ccccc2c1` the Potency was inconclusive: 6.31 µM [activator, single point]. In the case of `Nc1c(-c2nc(-c3ccccc3Cl)no2)nnn1-c1ccccc1F`, the “activity change, negative = inhibition” value is reported as inactive: 1.01% [at 46.1 µM]. In the case of `Cc1ccc(NC(=O)COc2ccc(-c3nn(C)c(=O)c4ccccc34)cc2)c(C)c1`, the “activity change, negative = inhibition” value is reported as inactive: -2.21% [at 46.1 µM]. With `CC(C)(C)NC(=O)NC(=O)CN1CCCCCCC1` the Potency was inconclusive: 15.8 µM [activator, single point]. With `CCCCNC(=O)Cc1ccc(C)cc1` the “activity change, negative = inhibition” value was inactive: 1.18%.

Source: PubChem BioAssay AID540256 (National Center for Advancing Translational Sciences (NCATS), 2011)
% is set by controls: 0 for no effect and ±100 for the full control effect; potency is the fitted concentration of half-maximal effect.
